Results are given in words; binding and its absence hold for the method and conditions named. In cells and extracts the contact can be indirect. Here binding means that the protein was enriched with, or labelled near, the bait; the list need not be complete. For part of these data: A no says only that the protein was not detected with the bait. Sequences can lack the tags named with a protein.
T1: Otu2-FTpA (FLAG-TEV-proteinA) (S. cerevisiae) (UniProt P38747)
T1 sequence: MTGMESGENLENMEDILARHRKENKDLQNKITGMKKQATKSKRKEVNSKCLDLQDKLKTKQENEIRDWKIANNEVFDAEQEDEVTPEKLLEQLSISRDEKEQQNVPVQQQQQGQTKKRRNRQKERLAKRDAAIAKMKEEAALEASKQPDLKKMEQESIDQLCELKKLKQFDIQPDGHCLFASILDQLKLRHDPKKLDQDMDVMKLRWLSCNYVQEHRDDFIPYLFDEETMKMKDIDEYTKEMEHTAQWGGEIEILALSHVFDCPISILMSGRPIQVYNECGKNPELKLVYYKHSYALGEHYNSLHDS

Amino acid sequences for entries named in this document (tags omitted).
UniProt P07260: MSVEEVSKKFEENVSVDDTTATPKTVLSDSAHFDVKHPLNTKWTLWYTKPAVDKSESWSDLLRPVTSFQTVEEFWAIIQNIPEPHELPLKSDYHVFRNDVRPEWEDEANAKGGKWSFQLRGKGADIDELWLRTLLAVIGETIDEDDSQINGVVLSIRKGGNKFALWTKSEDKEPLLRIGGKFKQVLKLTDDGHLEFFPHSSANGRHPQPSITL

T2: Ubp3-FTpA (FLAG-TEV-proteinA) (S. cerevisiae) (UniProt Q01477)
T2 sequence: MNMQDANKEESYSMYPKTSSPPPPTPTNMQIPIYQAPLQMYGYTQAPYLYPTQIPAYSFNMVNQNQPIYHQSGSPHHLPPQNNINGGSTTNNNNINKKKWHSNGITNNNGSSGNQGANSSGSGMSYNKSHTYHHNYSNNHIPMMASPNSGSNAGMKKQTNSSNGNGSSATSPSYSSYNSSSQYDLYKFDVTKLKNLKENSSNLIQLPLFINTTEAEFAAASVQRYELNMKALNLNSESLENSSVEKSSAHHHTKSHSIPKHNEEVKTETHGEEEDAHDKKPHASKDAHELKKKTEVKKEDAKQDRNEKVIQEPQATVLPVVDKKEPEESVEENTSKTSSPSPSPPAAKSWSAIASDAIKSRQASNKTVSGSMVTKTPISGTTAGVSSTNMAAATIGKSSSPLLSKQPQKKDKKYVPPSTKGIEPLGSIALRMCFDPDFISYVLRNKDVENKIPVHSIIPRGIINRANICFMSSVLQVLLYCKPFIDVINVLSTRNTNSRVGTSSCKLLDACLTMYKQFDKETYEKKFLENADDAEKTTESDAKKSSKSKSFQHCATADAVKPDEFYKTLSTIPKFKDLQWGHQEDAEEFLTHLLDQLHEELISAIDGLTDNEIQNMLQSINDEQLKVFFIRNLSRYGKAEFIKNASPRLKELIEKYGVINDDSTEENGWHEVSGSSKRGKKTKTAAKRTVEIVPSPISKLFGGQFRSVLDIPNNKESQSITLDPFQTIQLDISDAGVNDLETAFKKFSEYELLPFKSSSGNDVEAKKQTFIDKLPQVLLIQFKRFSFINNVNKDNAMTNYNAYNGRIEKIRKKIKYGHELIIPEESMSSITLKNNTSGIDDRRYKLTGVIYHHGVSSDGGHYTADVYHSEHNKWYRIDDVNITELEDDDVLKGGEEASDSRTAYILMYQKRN

B1: Bre5 (protein, UniProt P53741 1-515)
chain: MGVTVQDICFAFLQNYYERMRTDPSKLAYFYASTAELTHTNYQSKSTNEKDDVLPTVKVTGRENINKFFSRNDAKVRSLKLKLDTIDFQYTGHLHKSILIMATGEMFWTGTPVYKFCQTFILLPSSNGSTFDITNDIIRFISNSFKPYVLTDASLSQSNEENSVSAVEEDKIRHESGVEKEKEKEKSPEISKPKAKKETVKDTTAPTESSTQEKPIVDHSQPRAIPVTKESKIHTETVPSSTKGNHKQDEVSTEELGNVTKLNEKSHKAEKKAAPIKTKEGSVEAINAVNNSSLPNGKEVSDEKPVPGGVKEAETEIKPIEPQVSDAKESGNNASTPSSSPEPVANPPKMTWASKLMNENSDRISKNNTTVEYIRPETLPKKPTERKFEMGNRRDNASANSKNKKKPVFSTVNKDGFYPIYIRGTNGLREEKLRSALEKEFGKVMRITAADNFAVVDFETQKSQIDALEKKKKSIDGIEVCLERKTVKKPTSNNPPGIFTNGTRSHRKQPLKRKD
B2: eIF4A (protein, UniProt P10081 1-395)
chain: MSEGITDIEESQIQTNYDKVVYKFDDMELDENLLRGVFGYGFEEPSAIQQRAIMPIIEGHDVLAQAQSGTGKTGTFSIAALQRIDTSVKAPQALMLAPTRELALQIQKVVMALAFHMDIKVHACIGGTSFVEDAEGLRDAQIVVGTPGRVFDNIQRRRFRTDKIKMFILDEADEMLSSGFKEQIYQIFTLLPPTTQVVLLSATMPNDVLEVTTKFMRNPVRILVKKDELTLEGIKQFYVNVEEEEYKYECLTDLYDSISVTQAVIFCNTRRKVEELTTKLRNDKFTVSAIYSDLPQQERDTIMKEFRSGSSRILISTDLLARGIDVQQVSLVINYDLPANKENYIHRIGRGGRFGRKGVAINFVTNEDVGAMRELEKFYSTQIEELPSDIATLLN

Legend:
[1] = target: T1, Otu2-FTpA (FLAG-TEV-proteinA) (S. cerevisiae); assay: affinity purification with mass spectrometry
[2] = target: T2, Ubp3-FTpA (FLAG-TEV-proteinA) (S. cerevisiae); assay: affinity purification with mass spectrometry

| Molecule | binding [1] | binding [2] |
| --- | --- | --- |
| eIF4E (from UniProt P07260 1-213) | no binding | – |
| B1 | – | binds |
| B2 | no binding | – |

Source: doi:10.1101/2021.11.17.468975
